From the supplement of paper PMC10849652
Some of the results follow.

Chains of the proteins cited; added tags and fusions are not shown. Lines headed by an entry give the natural chain unless they say otherwise; changes in a name come on top.
UniProt P19338, whole entry, looked up: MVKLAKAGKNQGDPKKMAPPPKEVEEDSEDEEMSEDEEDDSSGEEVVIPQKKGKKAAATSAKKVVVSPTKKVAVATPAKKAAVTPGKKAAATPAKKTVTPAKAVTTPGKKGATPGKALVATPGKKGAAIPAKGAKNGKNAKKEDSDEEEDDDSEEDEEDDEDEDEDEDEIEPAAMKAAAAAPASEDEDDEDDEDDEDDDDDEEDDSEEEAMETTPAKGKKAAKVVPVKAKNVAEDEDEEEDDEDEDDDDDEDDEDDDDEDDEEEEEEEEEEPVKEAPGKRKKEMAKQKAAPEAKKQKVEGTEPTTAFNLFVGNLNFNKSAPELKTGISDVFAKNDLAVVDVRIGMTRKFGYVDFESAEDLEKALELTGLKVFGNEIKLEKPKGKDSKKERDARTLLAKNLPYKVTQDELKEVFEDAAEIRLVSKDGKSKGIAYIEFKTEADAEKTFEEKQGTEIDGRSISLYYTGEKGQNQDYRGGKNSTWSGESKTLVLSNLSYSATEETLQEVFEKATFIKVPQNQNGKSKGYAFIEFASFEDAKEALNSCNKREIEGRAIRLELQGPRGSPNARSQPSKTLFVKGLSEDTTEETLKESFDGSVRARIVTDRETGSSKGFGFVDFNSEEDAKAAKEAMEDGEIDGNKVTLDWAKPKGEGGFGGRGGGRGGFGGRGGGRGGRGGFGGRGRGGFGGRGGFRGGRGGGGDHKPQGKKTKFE
UniProt Q8WUY8: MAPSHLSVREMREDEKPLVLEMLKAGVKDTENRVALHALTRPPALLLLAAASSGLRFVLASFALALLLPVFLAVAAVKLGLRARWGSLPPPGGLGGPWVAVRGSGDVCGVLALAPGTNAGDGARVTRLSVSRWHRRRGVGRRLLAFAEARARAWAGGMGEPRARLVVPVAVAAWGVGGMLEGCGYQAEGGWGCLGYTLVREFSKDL
UniProt Q69YL0: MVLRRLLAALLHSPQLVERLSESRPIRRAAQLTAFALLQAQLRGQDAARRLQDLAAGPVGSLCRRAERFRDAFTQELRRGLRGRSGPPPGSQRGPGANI
UniProt Q8NI08: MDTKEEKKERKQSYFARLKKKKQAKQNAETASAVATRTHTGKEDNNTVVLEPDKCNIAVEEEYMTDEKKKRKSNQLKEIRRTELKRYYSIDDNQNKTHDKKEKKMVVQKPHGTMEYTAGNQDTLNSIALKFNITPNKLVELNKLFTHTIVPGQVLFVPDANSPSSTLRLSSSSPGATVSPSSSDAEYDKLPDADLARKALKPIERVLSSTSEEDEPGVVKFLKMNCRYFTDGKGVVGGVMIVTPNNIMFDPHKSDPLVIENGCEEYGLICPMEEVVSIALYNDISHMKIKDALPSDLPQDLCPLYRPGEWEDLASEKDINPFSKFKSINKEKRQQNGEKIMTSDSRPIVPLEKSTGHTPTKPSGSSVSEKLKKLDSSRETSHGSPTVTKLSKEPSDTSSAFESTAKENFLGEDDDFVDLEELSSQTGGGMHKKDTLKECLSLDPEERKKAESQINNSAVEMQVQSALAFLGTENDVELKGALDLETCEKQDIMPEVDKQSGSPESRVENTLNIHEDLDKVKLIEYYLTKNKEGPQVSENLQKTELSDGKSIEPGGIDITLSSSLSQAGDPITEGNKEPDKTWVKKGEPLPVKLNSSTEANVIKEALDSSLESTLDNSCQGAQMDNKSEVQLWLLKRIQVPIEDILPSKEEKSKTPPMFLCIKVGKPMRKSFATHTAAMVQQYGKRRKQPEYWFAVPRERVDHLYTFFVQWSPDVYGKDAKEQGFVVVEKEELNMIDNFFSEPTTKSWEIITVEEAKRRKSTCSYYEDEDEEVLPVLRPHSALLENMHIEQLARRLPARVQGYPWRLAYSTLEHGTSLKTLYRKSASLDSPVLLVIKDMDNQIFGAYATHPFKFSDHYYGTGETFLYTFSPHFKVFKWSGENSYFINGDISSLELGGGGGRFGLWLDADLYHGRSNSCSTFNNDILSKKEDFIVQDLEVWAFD
UniProt Q9UI09, whole entry, looked up: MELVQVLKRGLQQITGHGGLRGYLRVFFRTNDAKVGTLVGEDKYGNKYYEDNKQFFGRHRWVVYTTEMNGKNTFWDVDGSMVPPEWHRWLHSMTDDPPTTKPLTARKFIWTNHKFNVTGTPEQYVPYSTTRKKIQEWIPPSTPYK
UniProt P46934: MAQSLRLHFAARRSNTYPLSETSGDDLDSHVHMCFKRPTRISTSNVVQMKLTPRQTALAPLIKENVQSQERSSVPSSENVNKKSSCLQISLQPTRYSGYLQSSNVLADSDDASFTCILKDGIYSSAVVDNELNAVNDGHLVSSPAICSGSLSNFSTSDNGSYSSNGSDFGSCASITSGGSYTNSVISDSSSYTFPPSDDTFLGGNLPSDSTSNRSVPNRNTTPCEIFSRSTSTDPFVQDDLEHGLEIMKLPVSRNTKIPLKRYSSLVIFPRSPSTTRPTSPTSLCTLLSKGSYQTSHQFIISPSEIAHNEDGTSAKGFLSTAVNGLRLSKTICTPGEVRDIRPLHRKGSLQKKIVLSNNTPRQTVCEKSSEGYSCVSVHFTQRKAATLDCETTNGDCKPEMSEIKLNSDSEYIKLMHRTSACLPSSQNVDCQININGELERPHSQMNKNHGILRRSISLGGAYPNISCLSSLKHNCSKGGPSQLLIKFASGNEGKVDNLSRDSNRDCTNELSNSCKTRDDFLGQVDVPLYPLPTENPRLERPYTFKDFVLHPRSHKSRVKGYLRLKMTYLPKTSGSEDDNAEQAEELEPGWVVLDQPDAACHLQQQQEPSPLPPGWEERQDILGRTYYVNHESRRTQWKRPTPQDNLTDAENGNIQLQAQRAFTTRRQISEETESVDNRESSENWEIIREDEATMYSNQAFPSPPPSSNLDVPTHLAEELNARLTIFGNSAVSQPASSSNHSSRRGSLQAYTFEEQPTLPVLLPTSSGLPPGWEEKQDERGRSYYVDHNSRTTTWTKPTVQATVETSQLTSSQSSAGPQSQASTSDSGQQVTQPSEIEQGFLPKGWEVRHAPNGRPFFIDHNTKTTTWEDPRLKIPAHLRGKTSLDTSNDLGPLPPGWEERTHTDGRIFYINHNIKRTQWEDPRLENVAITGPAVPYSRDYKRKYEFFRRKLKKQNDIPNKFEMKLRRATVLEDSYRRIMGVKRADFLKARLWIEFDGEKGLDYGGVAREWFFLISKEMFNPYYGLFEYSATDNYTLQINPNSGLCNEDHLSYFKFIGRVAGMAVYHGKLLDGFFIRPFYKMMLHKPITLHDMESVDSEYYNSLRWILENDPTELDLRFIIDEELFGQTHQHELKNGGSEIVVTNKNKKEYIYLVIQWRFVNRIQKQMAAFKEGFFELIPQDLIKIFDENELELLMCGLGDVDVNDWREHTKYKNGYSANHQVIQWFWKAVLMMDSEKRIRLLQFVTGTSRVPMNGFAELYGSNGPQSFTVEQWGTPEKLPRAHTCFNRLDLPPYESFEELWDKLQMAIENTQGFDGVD
UniProt O60934: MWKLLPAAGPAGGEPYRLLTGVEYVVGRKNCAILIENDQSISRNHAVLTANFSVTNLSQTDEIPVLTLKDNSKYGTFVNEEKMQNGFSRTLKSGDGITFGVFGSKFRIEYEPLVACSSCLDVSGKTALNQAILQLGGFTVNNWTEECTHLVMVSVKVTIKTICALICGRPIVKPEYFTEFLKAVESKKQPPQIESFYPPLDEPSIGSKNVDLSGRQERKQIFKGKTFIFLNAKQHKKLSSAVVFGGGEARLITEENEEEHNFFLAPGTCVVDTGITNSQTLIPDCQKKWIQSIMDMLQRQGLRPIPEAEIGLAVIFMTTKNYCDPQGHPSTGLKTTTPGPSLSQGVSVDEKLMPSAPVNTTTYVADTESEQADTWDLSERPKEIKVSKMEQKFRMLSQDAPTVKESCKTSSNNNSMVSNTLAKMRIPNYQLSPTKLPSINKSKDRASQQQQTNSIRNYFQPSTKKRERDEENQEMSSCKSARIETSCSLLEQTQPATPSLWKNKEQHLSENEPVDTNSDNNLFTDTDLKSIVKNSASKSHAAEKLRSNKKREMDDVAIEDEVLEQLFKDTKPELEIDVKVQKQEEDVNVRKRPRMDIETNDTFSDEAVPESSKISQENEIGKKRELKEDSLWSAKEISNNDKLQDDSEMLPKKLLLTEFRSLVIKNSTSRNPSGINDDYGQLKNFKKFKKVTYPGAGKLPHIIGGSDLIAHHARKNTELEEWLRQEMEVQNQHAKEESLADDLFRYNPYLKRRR
UniProt P49321, whole entry, looked up: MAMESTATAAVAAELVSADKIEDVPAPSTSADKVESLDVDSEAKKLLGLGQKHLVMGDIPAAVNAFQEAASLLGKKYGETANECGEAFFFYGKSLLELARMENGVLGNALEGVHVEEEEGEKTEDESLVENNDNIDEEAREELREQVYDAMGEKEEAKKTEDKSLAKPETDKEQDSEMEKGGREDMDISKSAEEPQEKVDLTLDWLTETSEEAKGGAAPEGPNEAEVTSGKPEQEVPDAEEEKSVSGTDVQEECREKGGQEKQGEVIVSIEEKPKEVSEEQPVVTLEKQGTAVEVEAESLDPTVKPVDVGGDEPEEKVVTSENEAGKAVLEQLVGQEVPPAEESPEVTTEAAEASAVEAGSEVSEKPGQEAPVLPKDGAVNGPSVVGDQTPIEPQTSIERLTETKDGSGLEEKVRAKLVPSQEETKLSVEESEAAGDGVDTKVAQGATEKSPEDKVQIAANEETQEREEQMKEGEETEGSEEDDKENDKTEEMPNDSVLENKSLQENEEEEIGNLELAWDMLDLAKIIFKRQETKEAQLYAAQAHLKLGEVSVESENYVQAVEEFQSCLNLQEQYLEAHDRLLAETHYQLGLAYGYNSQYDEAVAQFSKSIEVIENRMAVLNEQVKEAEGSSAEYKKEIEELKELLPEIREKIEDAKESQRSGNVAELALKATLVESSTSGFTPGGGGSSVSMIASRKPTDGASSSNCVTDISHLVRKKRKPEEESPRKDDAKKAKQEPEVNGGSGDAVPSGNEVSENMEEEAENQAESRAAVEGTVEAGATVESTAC
UniProt O95182, whole entry, looked up: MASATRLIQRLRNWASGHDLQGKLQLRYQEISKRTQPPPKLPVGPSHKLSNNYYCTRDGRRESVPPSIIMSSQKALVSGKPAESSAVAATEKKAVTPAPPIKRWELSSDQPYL
UniProt Q15003, whole entry, looked up: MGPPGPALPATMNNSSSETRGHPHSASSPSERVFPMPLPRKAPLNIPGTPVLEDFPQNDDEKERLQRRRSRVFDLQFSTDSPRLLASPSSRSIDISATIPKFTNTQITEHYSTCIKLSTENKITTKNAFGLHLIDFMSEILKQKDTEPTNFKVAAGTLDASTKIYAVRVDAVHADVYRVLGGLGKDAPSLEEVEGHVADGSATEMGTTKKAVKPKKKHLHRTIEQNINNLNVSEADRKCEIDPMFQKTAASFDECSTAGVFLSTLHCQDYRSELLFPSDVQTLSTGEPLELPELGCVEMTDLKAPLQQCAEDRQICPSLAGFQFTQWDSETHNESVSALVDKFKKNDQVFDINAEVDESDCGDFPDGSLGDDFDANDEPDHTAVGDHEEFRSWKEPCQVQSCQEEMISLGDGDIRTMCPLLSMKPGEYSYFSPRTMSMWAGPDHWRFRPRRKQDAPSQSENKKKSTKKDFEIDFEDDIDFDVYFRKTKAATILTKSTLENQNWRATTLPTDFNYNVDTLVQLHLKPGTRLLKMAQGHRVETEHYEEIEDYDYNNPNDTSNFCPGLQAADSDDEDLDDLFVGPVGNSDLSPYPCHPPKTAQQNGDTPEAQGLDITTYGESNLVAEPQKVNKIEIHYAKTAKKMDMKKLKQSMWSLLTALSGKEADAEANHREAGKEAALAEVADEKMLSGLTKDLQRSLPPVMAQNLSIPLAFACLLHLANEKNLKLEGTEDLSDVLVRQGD
UniProt P55209: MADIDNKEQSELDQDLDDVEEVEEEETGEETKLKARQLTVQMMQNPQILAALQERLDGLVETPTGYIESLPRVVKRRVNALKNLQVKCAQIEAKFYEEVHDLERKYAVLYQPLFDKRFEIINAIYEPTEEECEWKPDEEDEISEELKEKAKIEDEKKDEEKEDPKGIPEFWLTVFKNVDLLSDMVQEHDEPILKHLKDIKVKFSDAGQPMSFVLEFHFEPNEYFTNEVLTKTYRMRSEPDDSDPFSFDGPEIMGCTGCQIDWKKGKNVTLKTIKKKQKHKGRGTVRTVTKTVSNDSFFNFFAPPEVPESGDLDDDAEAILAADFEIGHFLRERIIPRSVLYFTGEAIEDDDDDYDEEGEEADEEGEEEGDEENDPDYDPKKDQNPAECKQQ
UniProt P17568, whole entry, looked up: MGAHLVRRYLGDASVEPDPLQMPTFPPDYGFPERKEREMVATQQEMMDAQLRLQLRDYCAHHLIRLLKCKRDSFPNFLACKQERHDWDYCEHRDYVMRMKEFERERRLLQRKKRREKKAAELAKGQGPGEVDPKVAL
UniProt O43181, whole entry, looked up: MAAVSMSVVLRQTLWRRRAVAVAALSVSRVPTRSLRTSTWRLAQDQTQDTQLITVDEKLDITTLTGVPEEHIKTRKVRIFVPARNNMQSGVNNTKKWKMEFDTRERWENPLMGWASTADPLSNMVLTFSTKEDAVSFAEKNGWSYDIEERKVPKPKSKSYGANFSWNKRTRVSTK

Columns and labels:
Assay in all cases: log2 fold change, soluble protein after heating vs DMSO (PISA); higher = thermal stabilisation; K562 cells, 10 uM, 30 min; active = over 0.2 and 3.5 SD of the protein, either way, in both replicates (recomputed)
[1] = compound: CC[C@@H]1C(=O)N(C)c2cnc(Nc3ccc(C(=O)NC4CCN(C)CC4)cc3OC)nc2N1C1CCCC1
How it was run: (§1)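 K562 cells at 2×10^6 cells/mL were treated for 30 min with 10 μM compound, and aliquots were heated for 3 min over 48°C-58°C before pooling. Extraction used PBS with 0.5% NP-40 at 4°C, and soluble protein was the supernatant after 21,000xg for 90 min, measured by TMTpro 16plex LC-MS/MS with channel sums equalised. Thermal stability values, relative to control samples and from duplicates, are log2 fold changes.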

[2] = compound: CC[C@@H]1C(=O)N(C)c2cnc(Nc3ccc(C(=O)N[C@H]4CC[C@H](N5CCN(CC6CC6)CC5)CC4)cc3OC)nc2N1C(C)C [volasertib]
How it was run: as §1

[3] = compound: CC[C@H](C)N1C=C(C2=C(C=C(C=C21)C3=CN=C(C=C3)N4CCNCC4)C(=O)NCC5=C(C=C(NC5=O)C)C)C
How it was run: as §1

[4] = compound: CC[C@H](C)[C@@H](C(=O)N[C@@H]([C@@H](C)O)C(=O)N[C@@H](CC(C)C)C(=O)[C@]1(CO1)C)NC(=O)[C@H]([C@@H](C)CC)N(C)C(=O)C [epoxomicin]
How it was run: as §1

[5] = compound: CCn1cc(-c2ccnc3[nH]c(-c4cccc(CN(C)C)c4)cc23)c(-c2ccc(NC(=O)N(C)C)cc2)n1
How it was run: as §1

[6] = compound: CN(C)CC(=O)Nc1ccc2[nH]c(=O)c3ccccc3c2c1
How it was run: as §1

[7] = compound: CN1C2=C(C3=C1C(=O)N(N=C3)CC4=CC(=CC=C4)N)SC(=C2)S(=O)C
How it was run: as §1

[8] = compound: CN1CCC(CNc2ccc3ncc(-c4cccc(OC(F)(F)F)c4)n3n2)CC1
How it was run: as §1

[9] = compound: CN1CCN(CCOc2cc(OC3CCOCC3)c3c(Nc4c(Cl)ccc5c4OCO5)ncnc3c2)CC1 [saracatinib]
How it was run: as §1

[10] = compound: CN1CCN(c2nc(C3=C(c4c[nH]c5ccccc45)C(=O)NC3=O)c3ccccc3n2)CC1 [sotrastaurin]
How it was run: as §1

[11] = compound: CN1CCc2c(c3ccccc3n2Cc2ccc(C(=O)NO)cc2)C1 [Tubastatin A]
How it was run: as §1

[12] = compound: CNC(=O)C1=CC=CC=C1NC2=NC(=NC=C2Cl)NC3=C(C=C(C=C3)N4CCOCC4)OC
How it was run: as §1

[13] = compound: CNC(=O)c1ccc(Nc2ncc(C(F)(F)F)c(NCc3nccnc3N(C)S(C)(=O)=O)n2)cc1 [defactinib]
How it was run: as §1

[14] = compound: CNCc1ccc(-c2[nH]c3cc(F)cc4c3c2CCNC4=O)cc1 [rucaparib]
How it was run: as §1

[15] = compound: CNc1nc(-c2ccc3c(N)n[nH]c3c2)cc(N2C[C@@H](C(=O)NC3CCCCC3)CC[C@H]2C)n1
How it was run: as §1

[16] = compound: COC(=O)N[C@@H](C)CNc1nccc(-c2cn(C(C)C)nc2-c2cc(Cl)cc(NS(C)(=O)=O)c2F)n1 [encorafenib]
How it was run: as §1

[17] = compound: COC(=O)[C@H](CCSC)NC(=O)C1=C(C=C(C=C1)NC[C@H](CS)N)C2=CC=CC=C2
How it was run: as §1

[18] = compound: CCn1c(C(=O)N(C2CC2)C2CC2)cc2c3c(ncn3C)c(Nc3cc(C)n(C)n3)nc21
How it was run: as §1

[19] = compound: CN(CCOC1=CC=C(C=C1)C[C@H]2C(=O)NC(=O)S2)C3=CC=CC=N3 (racemic) [rosiglitazone]
How it was run: as §1

[20] = compound: CN1CC[C@H](c2c(O)cc(O)c3c(=O)cc(-c4ccccc4Cl)oc23)[C@H](O)C1 [alvocidib]
How it was run: as §1

Target	log2 fold change [1]	log2 fold change [2]	log2 fold change [3]	log2 fold change [4]	log2 fold change [5]	log2 fold change [6]	log2 fold change [7]	log2 fold change [8]	log2 fold change [9]	log2 fold change [10]	log2 fold change [11]	log2 fold change [12]	log2 fold change [13]	log2 fold change [14]	log2 fold change [15]	log2 fold change [16]	log2 fold change [17]	log2 fold change [18]	log2 fold change [19]	log2 fold change [20]
NCL (UniProt P19338)	inactive: 0.167	inactive: 0.173	inactive: -0.011	inactive: -0.427	inactive: 0.336	inactive: -0.06	inactive: 0.393	inactive: 0.293	inactive: -0.111	inactive: 0.013	inactive: 0.148	inactive: -0.001	inactive: 0.354	inactive: 0.387	inactive: 0.137	inactive: 0.257	inactive: -0.01	–	–	–
NAT14 (UniProt Q8WUY8)	inactive: -0.192	inactive: -0.261	inactive: 0.063	inactive: -0.024	–	inactive: 0.077	inactive: -0.107	–	inactive: -0.054	inactive: 0.068	inactive: -0.02	inactive: 0	inactive: -0.235	inactive: -0.002	inactive: -0.005	inactive: 0.002	inactive: 0.163	–	–	–
NCBP2AS2 (UniProt Q69YL0)	inactive: -0.255	inactive: -0.193	inactive: -0.1	–	inactive: 0.026	inactive: -0.072	inactive: 0.049	active: -0.906	inactive: 0.056	inactive: 0.215	inactive: -0.064	inactive: -0.005	inactive: 0.013	inactive: -0.03	inactive: -0.081	inactive: 0.031	inactive: 0.031	–	–	–
NACA4P (UniProt Q9BZK3)	inactive: 0.023	–	inactive: -0.011	inactive: 0.017	–	inactive: 0.029	inactive: 0.025	–	inactive: 0.169	inactive: 0.027	inactive: 0.101	inactive: -0.146	inactive: -0.028	inactive: -0.048	inactive: 0	inactive: -0.037	inactive: -0.032	inactive: -0.235	inactive: 0.026	inactive: -0.04
NCOA7 (UniProt Q8NI08)	inactive: -0.035	active: -0.287	inactive: 0.124	inactive: 0.021	inactive: -0.004	inactive: -0.002	inactive: -0.009	inactive: -0.265	inactive: -0.05	inactive: -0.074	inactive: -0.02	inactive: -0.011	inactive: -0.099	inactive: -0.029	inactive: -0.064	inactive: 0.019	inactive: 0.039	–	–	–
NDUFA12 (UniProt Q9UI09)	inactive: -0.135	inactive: -0.244	inactive: 0.081	inactive: 0.046	inactive: -0.173	inactive: 0.119	inactive: -0.054	active: -0.632	inactive: 0.029	inactive: -0.017	inactive: 0	inactive: -0.027	inactive: -0.037	inactive: -0.061	inactive: 0.031	inactive: 0.05	inactive: -0.018	–	–	–
NEB isoform 3 (UniProt P20929)	inactive: -0.302	–	inactive: 0.106	inactive: 0.079	inactive: 0.047	inactive: 0.133	inactive: -0.054	inactive: -0.055	inactive: 0.233	–	–	inactive: 0.029	inactive: -0.148	inactive: 0.007	inactive: 0.022	inactive: -0.019	inactive: 0.06	inactive: 0.017	inactive: -0.059	inactive: 0.139
NEDD4 isoform 4 (UniProt P46934)	inactive: -0.102	active: -0.521	inactive: 0.008	inactive: 0.008	inactive: -0.031	inactive: 0.015	inactive: -0.01	inactive: 0.049	inactive: 0.116	inactive: -0.026	inactive: 0.037	inactive: 0.041	inactive: -0.108	inactive: -0.099	inactive: -0.026	inactive: 0.049	inactive: -0.009	–	–	–
NBN (UniProt O60934)	inactive: -0.072	active: -0.219	inactive: 0.031	inactive: 0.073	inactive: 0.002	inactive: 0.061	inactive: -0.043	inactive: -0.116	inactive: -0.008	inactive: -0.03	inactive: 0.191	inactive: -0.065	inactive: -0.159	inactive: 0.006	inactive: 0.049	inactive: 0.003	inactive: -0.019	–	–	–
NASP (UniProt P49321)	inactive: -0.118	active: -0.277	inactive: 0.049	inactive: 0.046	inactive: -0.03	inactive: 0.004	inactive: -0.061	inactive: -0.051	inactive: 0	inactive: -0.045	inactive: 0.012	inactive: 0.073	inactive: -0.085	inactive: -0.11	inactive: -0.041	inactive: 0.001	inactive: -0.004	–	–	–
NDUFA7 (UniProt O95182)	inactive: -0.19	inactive: -0.109	inactive: -0.023	inactive: 0.052	inactive: 0.011	inactive: 0.01	inactive: 0.027	active: -0.324	inactive: -0.037	inactive: 0.047	inactive: -0.148	inactive: -0.042	inactive: 0	inactive: 0.046	inactive: -0.031	inactive: -0.042	inactive: -0.008	–	–	–
NCAPH (UniProt Q15003)	inactive: -0.126	active: -0.353	inactive: 0.051	inactive: 0.011	inactive: 0.052	inactive: 0.043	inactive: -0.021	inactive: -0.116	inactive: 0.001	inactive: -0.15	inactive: 0.04	inactive: 0.024	inactive: -0.119	inactive: 0.074	inactive: 0.009	inactive: 0.057	inactive: -0.039	–	–	–
NEDD4L (UniProt Q96PU5)	inactive: -0.02	active: -0.425	inactive: 0.03	inactive: 0.012	inactive: -0.09	inactive: 0.023	inactive: 0.039	inactive: -0.099	inactive: -0.014	inactive: -0.063	inactive: 0.057	inactive: 0.068	inactive: -0.135	inactive: 0.002	inactive: -0.059	inactive: 0.03	inactive: -0.023	–	–	–
NAP1L1 (UniProt P55209)	inactive: -0.112	active: -0.237	inactive: 0.005	inactive: 0.048	inactive: -0.008	inactive: 0.013	inactive: 0.003	inactive: -0.038	inactive: 0.042	inactive: -0.039	inactive: -0.008	inactive: 0.053	inactive: -0.008	inactive: 0.039	inactive: -0.084	inactive: 0.048	inactive: 0.023	–	–	–
NCAPG (UniProt Q9BPX3)	inactive: -0.105	active: -0.506	inactive: 0.059	inactive: 0.023	inactive: 0.003	inactive: 0.04	inactive: 0.004	inactive: 0.092	inactive: -0.077	inactive: -0.122	inactive: 0.026	inactive: 0.106	inactive: -0.067	inactive: 0.078	inactive: -0.004	inactive: 0.093	inactive: -0.039	–	–	–
NDUFB7 (UniProt P17568)	inactive: -0.053	inactive: -0.004	inactive: -0.072	inactive: -0.066	inactive: -0.099	inactive: -0.036	inactive: -0.058	inactive: 0.094	inactive: 0.046	inactive: -0.014	inactive: 0.016	inactive: 0.021	inactive: -0.015	inactive: -0.021	inactive: -0.011	inactive: -0.032	inactive: 0.029	–	–	–
NDUFS4 (UniProt O43181)	inactive: 0.052	inactive: 0.074	inactive: -0.037	inactive: -0.025	inactive: 0.071	inactive: -0.079	inactive: 0.033	inactive: -0.013	inactive: 0.117	inactive: 0.1	inactive: -0.082	inactive: -0.025	inactive: 0.035	inactive: 0.011	inactive: -0.074	inactive: -0.051	inactive: 0.079	–	–	–

Two entries from above, as comma-separated lines:
Target,log2 fold change [1],log2 fold change [2],log2 fold change [3],log2 fold change [4],log2 fold change [5],log2 fold change [6],log2 fold change [7],log2 fold change [8],log2 fold change [9],log2 fold change [10],log2 fold change [11],log2 fold change [12],log2 fold change [13],log2 fold change [14],log2 fold change [15],log2 fold change [16],log2 fold change [17],log2 fold change [18],log2 fold change [19],log2 fold change [20]
NCL (UniProt P19338),inactive: 0.167,inactive: 0.173,inactive: -0.011,inactive: -0.427,inactive: 0.336,inactive: -0.06,inactive: 0.393,inactive: 0.293,inactive: -0.111,inactive: 0.013,inactive: 0.148,inactive: -0.001,inactive: 0.354,inactive: 0.387,inactive: 0.137,inactive: 0.257,inactive: -0.01,–,–,–
NCBP2AS2 (UniProt Q69YL0),inactive: -0.255,inactive: -0.193,inactive: -0.1,–,inactive: 0.026,inactive: -0.072,inactive: 0.049,active: -0.906,inactive: 0.056,inactive: 0.215,inactive: -0.064,inactive: -0.005,inactive: 0.013,inactive: -0.03,inactive: -0.081,inactive: 0.031,inactive: 0.031,–,–,–
